In publication PMC6620385:
Results are given in words; binding and its absence hold for the method and conditions named. In cells and extracts the contact can be indirect. Some results given as binding are weak or reduced against the parent protein; the word gives no strength. Where a sequence is shown, tags or fusion partners need not be part of it.

Chains of the proteins cited; added tags and fusions are not shown.
UniProt P56915: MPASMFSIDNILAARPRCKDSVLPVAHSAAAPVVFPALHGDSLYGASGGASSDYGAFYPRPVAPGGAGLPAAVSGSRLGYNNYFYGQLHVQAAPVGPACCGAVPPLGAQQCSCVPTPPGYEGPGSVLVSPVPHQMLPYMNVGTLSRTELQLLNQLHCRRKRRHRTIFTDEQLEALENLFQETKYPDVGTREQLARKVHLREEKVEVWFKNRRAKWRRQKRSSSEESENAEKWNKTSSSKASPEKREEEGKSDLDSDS

Target: T1, Myc-tagged ubiquitin carboxyl-terminal hydrolase 21 (Myc-USP21) (human (cDNA from HEK 293T cells)) (UniProt Q9UK80)
T1 sequence: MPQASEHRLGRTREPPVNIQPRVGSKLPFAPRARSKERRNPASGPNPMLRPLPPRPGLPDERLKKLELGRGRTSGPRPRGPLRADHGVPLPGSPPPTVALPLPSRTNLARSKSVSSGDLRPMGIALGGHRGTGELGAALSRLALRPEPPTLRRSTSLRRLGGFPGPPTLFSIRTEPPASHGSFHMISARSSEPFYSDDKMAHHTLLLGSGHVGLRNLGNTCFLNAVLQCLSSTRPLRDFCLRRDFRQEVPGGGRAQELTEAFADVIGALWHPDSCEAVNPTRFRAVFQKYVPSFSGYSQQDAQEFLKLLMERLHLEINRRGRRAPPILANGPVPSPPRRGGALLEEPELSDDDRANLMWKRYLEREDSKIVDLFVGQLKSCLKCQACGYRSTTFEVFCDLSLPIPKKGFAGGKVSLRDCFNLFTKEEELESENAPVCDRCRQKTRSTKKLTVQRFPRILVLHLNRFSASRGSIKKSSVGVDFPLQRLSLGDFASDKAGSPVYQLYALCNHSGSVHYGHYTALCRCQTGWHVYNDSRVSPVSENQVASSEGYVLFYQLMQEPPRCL
Test: co-IP; HEK 293T cells co-transfected with Flag-GSC and Myc-USP21; lysed after 48 h in HEPES lysis buffer (20 mM HEPES pH 7.2, 50 mM NaCl, 1 mM NaF, 0.5% Triton X-100); anti-Myc (and anti-Flag) immunoprecipitation at 4°C, Western blot

Flag epitope-tagged Goosecoid (Flag-GSC) (from UniProt P56915 1-257)
binding: binds
